# Like-named read-outs stand apart in the source and are kept apart here.
# B1: A (other)
# chain: LAAVSVDCSEYPKPACTMEYRPLCGSDNKTYGNKCNFCNAVVESNGTLTLSHFGKC
# modifications: Asn(Oligosaccharide) at residue 28 (asparagine-linked sugar chain of formula (1)); disulfide bonds formed on folding, positions not determined for this fraction
# B2: C (other)
# chain: B1 chain
# modifications: Asn(Oligosaccharide) at residue 28 (asparagine-linked sugar chain of formula (1)); disulfide bonds formed on folding, positions not determined for this fraction
# B3: D (other)
# chain: B1 chain
# modifications: Asn(Oligosaccharide) at residue 28 (asparagine-linked sugar chain of formula (1)); disulfide bonds formed on folding, positions not determined for this fraction
# B4: B (other)
# chain: B1 chain
# modifications: Asn(Oligosaccharide) at residue 28 (asparagine-linked sugar chain of formula (1)); three disulfide bonds at the same positions as naturally-occurring OMSVP3
# B5: F (other)
# chain: B1 chain
# modifications: three disulfide bonds at the same positions as naturally-occurring OMSVP3
# How the values were obtained:
# [1] = biological target: chymotrypsin; assay: chymotrypsin inhibition
# [2] = biological target: chymotrypsin; assay: chymotrypsin inhibition; remark: listed apart in the source
IC50 [1],IC50 [2],Binder
5.9 nM,,B1
10.9 nM,,B2
17.6 nM,,B3
9.1 nM,,B4
,7.2 nM,B5

# From US20110262945A1 (published 2011)
